# In the supplement of paper PMC12067093, “Discovery and optimisation of a covalent ligand for TRIM25 and its application to targeted protein ubiquitination” (Chemical Science, 2025):
# The other results are listed elsewhere or left out.
# Key:
# [1] = target: CLIC1_O00299_191_LHIVQVVCK (UniProt O00299); test: probe-labelled cysteine peptide fold change vs DMSO (competition) (log2 fold change); higher = less target engagement (more negative = stronger competition); conditions: THP-1, incubation time: 4 h
# [2] = target: CLIC1_O00299_191_LHIVQVVCKK (UniProt O00299); test: as above; conditions: THP-1, incubation time: 4 h
# 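Further: competitive chemoproteomic profiling in live THP-1 cells with an iodoacetamide desthiobiotin (IA-DTB) probe, comparing probe-labelled peptide intensities in compound-treated cells against DMSO-treated controls.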
smiles,measurement,setting,value
CC1Cc2ccccc2N1C(=O)C1CCCN(C(=O)CCl)C1 (mixture of isomers) [TRIM25 ligand 11 (diastereomer mixture)],probe-labelled cysteine peptide fold change,[1]; 10 µM,-0.0185
same,probe-labelled cysteine peptide fold change,[1]; 50 µM,-0.0382
same,probe-labelled cysteine peptide fold change,[2]; 10 µM,-0.428
same,probe-labelled cysteine peptide fold change,[2]; 50 µM,-0.575
